For the test, the target named is T1, glial cell line-derived neurotrophic factor (GDNF) (rat (endogenous in C6)) (UniProt Q07731).
T1 sequence: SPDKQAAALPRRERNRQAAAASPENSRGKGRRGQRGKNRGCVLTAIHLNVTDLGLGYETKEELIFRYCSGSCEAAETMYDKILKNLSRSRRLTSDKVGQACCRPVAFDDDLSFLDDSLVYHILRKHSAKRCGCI
As to the kind of experiment: co-IP; membrane proteins of C6 glioma cells treated with or without 40 ng/ml GDNF; protein A/G-agarose beads with anti-GDNF, anti-NRP1 or IgG, overnight at 4°C; Western blot with anti-GDNF or anti-NRP1.

Results are given in words; binding and its absence hold for the method and conditions named. Binding seen in cells or lysates may run through a third protein. Some results given as binding are weak or reduced against the parent protein; the word gives no strength.

For “neuropilin-1 (NRP1) (from UniProt Q9QWJ9 22-922) (receptor)”, the binding result is on record as “binds”.

These data come from PMC5650320.
